Test results as given in patent US6132711A, “Enzymatic antioxidant of allene oxide for lipid peroxidation in biological systems” (Arizona Board of Regents, priority 1997, dated 2000).
For at least one compound, name, drawing or mass did not settle the structure.

Legend:
AOS [1] = biological target: T1, AOS (Parthenium argentatum, UniProt Q40778); assay: Superoxide/colorimetry (riboflavin/TEMED/NBT) assay; conditions: rubber particles incubated with inhibitor
T1 sequence (Q40778 1-473): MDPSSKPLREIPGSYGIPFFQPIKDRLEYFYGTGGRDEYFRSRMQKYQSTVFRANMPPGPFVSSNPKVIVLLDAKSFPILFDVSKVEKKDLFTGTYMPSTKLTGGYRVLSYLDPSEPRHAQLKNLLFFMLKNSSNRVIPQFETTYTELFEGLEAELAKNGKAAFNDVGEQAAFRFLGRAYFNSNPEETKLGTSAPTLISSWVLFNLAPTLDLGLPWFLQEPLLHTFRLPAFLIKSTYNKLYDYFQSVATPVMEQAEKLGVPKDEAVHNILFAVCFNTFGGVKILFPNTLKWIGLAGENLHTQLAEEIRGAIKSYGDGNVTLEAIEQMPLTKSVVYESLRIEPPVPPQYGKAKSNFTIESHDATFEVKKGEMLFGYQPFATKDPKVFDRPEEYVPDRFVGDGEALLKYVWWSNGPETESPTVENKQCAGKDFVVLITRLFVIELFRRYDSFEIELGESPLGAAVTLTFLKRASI

AOS [2] = biological target: T1, AOS; assay: Fluorescence spectroscopy of rubber particles incubated with AOS inhibitors; type: biochemical, guayule; set-up: from tissue; host or cells: washed rubber particles of guayule, carrying the endogenous AOS; conditions: native rubber particles incubated with 1 mM inhibitor
Protocol: Rubber particle suspensions containing approximately 5×10^10 particles ml^-1 or 100 μg μl^-1 rubber were extracted for lipids and analyzed according to Yao et al., J Cell Biochem 51: 488-494 (1993); Eldred, Anal. Biochem. 64: 23-36 (1987), Malshet et al., Lipids 9: 328-332 (1974) and above (see sec. 8.1) using a FluoroMax spectrofluoromoeter (JY/SPEX Instruments SA, Inc.) with an excitation maxima of 300 nm and an emission maxima of 405 nm. Background fluorescence was automatically subtracted. […] The effect of pH on relative fluorescence spectroscopy was performed. The effect of pH on relative fluorescence intensities was also determined on lipids extracted from rubber particle lipids according to Malshet et al., Lipids 9: 328-332 (1974).

CCCOC(=O)c1cc(O)c(O)c(O)c1 [nPG, n-propylgallate]
NBT color after superoxide (AOS [1]): blue | fluorescence of rubber particles (AOS [2]): did not fluoresce
